Results are given in words; binding and its absence hold for the method and conditions named. Some binding calls cover weakened binding; strength is not graded here. Tags and fused reporters may be left off the sequences shown.
Biological target: CD25 (IL-2Rα) on the surface of activated T cells (human) (UniProt P01589)
Assay: binding to cell surface CD25

By UniProt entry, the sequences of proteins in these tests, tags left out. Residues count along the entry.
UniProt P01589, residues 22-272: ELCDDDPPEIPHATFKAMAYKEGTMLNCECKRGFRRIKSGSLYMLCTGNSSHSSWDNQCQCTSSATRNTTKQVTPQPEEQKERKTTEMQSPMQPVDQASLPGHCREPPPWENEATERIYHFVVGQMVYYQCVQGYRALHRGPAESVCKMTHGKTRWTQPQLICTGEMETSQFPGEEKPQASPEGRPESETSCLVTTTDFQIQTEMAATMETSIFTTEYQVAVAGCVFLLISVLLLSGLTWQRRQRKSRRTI

B1: IL-2 mutein haD5 fused to the amino terminus of Fc, separated by a GGGGS linker (Fc fusion, not shown: a dimerising Fc or GST)
chain: APTSSSTKKTQLQLQNLLLDLQMILNGISNHKNPRLARMLTFKFYMPEKATELKHLQCLEEELKPLEEALRLAPSKNFHLRPRDLISDINVIVLELKGSETTFMCEYADETATIVEFLNRWITFSQSIISTLTGGGGS
binding: binds

From patent publication US20210139554A1
